Test results as given in doi:10.1101/2025.11.23.690026.

By UniProt entry, the sequences of proteins in these tests, tags left out.
UniProt P22082: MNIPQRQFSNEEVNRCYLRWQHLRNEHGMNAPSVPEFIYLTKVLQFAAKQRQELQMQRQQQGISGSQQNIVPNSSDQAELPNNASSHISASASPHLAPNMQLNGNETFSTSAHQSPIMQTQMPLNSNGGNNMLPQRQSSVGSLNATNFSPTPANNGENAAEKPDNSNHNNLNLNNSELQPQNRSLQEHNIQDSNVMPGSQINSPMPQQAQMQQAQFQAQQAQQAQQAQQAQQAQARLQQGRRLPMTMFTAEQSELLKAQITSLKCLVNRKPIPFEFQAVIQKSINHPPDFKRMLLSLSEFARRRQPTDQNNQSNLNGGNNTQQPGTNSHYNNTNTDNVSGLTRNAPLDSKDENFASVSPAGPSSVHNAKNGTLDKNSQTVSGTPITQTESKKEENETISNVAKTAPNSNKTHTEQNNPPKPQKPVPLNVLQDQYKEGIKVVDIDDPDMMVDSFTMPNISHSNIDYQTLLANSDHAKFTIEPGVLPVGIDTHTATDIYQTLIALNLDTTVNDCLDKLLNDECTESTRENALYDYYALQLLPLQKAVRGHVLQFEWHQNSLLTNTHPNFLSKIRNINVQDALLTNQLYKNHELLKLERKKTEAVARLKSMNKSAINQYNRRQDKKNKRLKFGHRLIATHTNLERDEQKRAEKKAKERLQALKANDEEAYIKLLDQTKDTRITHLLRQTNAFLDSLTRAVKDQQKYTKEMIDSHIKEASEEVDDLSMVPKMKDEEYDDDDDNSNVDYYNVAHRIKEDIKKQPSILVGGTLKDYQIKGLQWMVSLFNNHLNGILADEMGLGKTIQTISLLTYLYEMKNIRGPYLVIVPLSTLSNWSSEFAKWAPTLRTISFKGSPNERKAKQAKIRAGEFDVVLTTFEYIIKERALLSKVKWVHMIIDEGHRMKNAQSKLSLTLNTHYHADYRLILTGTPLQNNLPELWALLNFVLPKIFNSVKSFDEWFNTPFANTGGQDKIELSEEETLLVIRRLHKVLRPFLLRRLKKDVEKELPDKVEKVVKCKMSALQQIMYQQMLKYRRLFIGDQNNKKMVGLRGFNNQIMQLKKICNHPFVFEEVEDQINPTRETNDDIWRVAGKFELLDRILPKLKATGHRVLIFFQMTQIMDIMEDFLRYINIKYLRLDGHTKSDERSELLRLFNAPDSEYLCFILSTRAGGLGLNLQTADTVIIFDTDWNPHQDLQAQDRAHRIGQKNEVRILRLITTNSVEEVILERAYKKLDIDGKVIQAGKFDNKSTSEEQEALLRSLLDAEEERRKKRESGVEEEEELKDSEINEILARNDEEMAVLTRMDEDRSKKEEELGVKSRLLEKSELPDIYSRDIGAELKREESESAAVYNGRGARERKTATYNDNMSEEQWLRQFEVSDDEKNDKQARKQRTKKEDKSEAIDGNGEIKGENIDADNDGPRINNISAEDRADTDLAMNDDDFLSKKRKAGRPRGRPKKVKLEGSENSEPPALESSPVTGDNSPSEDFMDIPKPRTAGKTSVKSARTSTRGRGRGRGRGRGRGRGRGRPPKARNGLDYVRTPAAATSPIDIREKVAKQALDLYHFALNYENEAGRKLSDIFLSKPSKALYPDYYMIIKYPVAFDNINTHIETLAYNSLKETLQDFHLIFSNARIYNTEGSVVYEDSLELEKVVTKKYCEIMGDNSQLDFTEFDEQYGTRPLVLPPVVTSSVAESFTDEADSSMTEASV
UniProt Q12406: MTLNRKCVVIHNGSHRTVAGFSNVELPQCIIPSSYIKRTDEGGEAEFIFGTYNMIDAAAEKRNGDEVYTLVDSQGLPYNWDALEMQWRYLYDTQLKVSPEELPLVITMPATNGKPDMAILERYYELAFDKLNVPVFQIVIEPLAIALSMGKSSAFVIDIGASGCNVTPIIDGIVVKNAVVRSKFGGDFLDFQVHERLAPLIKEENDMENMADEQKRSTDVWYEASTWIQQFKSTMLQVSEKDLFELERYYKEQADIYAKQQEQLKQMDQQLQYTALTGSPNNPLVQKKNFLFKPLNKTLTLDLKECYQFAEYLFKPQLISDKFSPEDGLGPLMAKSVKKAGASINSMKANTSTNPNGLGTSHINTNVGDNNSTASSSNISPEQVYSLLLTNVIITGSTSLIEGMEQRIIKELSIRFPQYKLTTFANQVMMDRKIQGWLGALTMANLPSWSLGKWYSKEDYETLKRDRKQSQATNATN
UniProt Q05123: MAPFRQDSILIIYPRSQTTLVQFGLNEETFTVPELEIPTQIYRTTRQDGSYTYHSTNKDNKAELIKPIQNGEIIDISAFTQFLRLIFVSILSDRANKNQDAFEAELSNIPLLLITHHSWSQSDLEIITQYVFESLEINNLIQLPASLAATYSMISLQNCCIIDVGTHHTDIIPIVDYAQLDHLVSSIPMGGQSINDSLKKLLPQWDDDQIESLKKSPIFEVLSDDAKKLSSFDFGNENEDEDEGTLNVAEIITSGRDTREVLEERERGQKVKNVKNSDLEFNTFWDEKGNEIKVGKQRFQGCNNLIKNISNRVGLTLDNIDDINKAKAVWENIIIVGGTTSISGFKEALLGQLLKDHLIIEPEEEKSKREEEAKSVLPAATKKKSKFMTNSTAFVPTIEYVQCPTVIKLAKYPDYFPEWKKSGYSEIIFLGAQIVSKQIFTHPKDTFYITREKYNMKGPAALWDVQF
UniProt P18480: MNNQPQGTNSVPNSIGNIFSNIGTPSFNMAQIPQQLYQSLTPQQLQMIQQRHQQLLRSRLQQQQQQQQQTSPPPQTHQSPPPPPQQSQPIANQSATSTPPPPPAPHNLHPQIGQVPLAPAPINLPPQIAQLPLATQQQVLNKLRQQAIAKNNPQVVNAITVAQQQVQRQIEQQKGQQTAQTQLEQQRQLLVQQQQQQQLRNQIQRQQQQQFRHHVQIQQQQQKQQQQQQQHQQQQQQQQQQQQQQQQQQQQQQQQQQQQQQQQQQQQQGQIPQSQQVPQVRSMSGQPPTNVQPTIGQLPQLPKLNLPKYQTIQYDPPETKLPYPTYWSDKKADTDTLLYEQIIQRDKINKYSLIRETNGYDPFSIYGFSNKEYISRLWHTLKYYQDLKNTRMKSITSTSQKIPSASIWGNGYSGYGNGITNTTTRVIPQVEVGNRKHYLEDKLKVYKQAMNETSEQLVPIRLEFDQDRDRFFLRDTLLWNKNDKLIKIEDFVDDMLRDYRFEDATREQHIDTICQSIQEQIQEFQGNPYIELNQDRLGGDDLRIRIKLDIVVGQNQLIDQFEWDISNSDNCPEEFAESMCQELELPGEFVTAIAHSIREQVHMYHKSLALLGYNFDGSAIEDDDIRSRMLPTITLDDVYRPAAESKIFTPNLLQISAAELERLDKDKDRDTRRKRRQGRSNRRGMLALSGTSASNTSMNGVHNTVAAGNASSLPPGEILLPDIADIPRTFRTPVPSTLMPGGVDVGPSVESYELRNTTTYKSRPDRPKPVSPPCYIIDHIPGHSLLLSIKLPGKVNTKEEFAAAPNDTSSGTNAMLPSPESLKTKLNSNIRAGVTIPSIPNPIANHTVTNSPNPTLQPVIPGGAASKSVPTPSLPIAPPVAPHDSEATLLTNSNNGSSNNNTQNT
UniProt P18888: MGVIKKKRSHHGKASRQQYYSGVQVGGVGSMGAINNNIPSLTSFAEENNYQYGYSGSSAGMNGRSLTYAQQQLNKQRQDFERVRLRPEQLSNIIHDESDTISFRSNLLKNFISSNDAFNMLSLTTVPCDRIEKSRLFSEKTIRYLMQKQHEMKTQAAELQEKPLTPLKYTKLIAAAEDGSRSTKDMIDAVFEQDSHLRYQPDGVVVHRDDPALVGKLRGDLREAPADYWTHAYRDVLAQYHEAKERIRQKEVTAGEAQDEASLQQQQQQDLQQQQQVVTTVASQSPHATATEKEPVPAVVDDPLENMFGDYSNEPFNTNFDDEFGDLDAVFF
UniProt P53628: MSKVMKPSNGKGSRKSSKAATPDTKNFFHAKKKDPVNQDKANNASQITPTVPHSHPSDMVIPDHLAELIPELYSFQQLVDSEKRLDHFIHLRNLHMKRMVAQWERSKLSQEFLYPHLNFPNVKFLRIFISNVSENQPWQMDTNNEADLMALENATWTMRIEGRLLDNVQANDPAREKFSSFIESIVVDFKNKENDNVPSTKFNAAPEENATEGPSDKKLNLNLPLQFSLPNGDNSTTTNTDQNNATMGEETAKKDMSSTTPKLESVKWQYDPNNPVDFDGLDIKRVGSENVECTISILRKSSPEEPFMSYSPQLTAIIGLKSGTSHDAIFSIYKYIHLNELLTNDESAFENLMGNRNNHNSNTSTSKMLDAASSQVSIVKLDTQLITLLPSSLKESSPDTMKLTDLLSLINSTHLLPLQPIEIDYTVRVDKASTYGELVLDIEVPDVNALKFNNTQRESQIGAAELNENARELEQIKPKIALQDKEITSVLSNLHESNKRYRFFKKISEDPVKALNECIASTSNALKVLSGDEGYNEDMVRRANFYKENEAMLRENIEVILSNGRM
UniProt P32591: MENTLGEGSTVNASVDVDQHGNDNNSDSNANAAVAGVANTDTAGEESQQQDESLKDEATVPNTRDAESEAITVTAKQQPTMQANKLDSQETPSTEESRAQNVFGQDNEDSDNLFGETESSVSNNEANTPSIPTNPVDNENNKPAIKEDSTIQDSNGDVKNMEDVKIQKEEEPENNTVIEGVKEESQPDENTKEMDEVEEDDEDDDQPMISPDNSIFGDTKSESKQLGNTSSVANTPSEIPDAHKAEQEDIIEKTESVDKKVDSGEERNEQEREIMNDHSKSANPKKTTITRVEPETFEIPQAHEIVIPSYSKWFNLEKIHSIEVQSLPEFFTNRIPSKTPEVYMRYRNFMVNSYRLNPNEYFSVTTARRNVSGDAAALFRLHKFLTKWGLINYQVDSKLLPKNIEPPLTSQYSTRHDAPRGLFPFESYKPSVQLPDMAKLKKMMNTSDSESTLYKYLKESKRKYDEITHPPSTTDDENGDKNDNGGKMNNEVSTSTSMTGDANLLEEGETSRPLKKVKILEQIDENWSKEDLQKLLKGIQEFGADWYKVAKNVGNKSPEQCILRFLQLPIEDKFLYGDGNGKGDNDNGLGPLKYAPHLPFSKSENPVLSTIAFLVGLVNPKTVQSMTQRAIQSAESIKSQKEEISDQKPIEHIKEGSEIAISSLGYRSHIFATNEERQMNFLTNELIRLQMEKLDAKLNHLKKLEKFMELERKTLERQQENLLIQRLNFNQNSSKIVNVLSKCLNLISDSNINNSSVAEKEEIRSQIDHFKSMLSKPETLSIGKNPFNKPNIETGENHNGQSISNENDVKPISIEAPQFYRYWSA
UniProt P43554: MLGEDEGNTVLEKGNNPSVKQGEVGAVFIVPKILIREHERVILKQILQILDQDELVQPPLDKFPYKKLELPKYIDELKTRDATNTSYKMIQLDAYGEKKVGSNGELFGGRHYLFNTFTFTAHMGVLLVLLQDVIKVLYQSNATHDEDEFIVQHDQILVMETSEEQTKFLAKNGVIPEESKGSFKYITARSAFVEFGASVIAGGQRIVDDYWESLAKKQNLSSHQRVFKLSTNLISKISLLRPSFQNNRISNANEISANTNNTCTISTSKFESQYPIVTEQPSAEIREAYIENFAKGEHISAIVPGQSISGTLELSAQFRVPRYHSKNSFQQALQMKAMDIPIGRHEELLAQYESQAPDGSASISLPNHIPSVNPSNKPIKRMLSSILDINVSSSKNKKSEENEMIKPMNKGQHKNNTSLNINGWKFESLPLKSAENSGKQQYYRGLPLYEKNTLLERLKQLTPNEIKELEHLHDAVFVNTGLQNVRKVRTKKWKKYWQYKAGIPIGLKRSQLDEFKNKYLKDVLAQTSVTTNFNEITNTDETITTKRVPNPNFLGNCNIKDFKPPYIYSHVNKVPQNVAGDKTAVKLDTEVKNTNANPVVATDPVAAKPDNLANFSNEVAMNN
UniProt P35189: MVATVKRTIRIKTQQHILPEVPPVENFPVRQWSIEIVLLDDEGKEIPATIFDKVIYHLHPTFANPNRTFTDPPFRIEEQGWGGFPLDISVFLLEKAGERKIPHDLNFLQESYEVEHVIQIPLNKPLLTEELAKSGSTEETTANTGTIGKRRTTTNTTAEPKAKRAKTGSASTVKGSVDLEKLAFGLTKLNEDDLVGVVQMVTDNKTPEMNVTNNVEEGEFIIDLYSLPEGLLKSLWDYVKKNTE

target: Snf2-GFP (S. cerevisiae) (UniProt P22082); experiment: affinity purification with mass spectrometry

| Molecule | binding |
| --- | --- |
| Arp7 (from UniProt Q12406 1-477) | binds |
| Arp9 (from UniProt Q05123 1-467) | binds |
| Snf5 (endogenous) (from UniProt P18480 1-905) | binds |
| Snf6 (from UniProt P18888 1-332) | binds |
| Snf12 (from UniProt P53628 1-566) | binds |
| Swi3 (from UniProt P32591 1-825) | binds |
| Swp82 (from UniProt P43554 1-623) | binds |
| Taf14 (from UniProt P35189 1-244) | binds |
| Swi1 (endogenous) (protein, UniProt P09547 1-1314) MDFFNLNNNNNNNNTTTTTTTTNNNNTNNNNTNNNNNPANNTNNNNSTGHSSNTNNNTNNNNTNTGASGVDDFQNFFDPKPFDQNLDSNNNNSNSNNNDNNNSNTVASSTNFTSPTAVVNNAAPANVTGGKAANFIQNQSPQFNSPYDSNNSNTNLNSLSPQAILAKNSIIDSSNLPLQAQQQLYGGNNNNNSTGIANDNVITPHFITNVQSISQNSSSSTPNTNSNSTPNANQQFLPFNNSASNNGNLTSNQLISNYAASNSMDRSSSASNEFVPNTSDNNNNSNNHNMRNNSNNKTSNNNNVTAVPAATPANTNNSTSNANTVFSERAAMFAALQQKQQQRFQALQQQQQQQQNQQQQNQQPQQQQQQQQNPKFLQSQRQQQQRSILQSLNPALQEKISTELNNKQYELFMKSLIENCKKRNMPLQSIPEIGNRKINLFYLYMLVQKFGGADQVTRTQQWSMVAQRLQISDYQQLESIYFRILLPYERHMISQEGIKETQAKRIFLQQFLQELLKKVQQQQQAAALANANNNINSASSAPTPAAPGASVPATAAPGTEAGIVPVSANTPKSLNSNININVNNNNIGQQQVKKPRKQRVKKKTKKELELERKEREDFQKRQQKLLEDQQRQQKLLLETKLRQQYEIELKKLPKVYKRSIVRNYKPLINRLKHYNGYDINYISKIGEKIDSNKPIFLFAPELGAINLHALSMSLQSKNLGEINTALNTLLVTSADSNLKISLVKYPELLDSLAILGMNLLSNLSQNVVPYHRNTSDYYYEDAGSNQYYVTQHDKMVDKIFEKVNNNATLTPNDSNDEKVTILVDSLTGNQLPTPTPTEMEPDLDTECFISMQSTSPAVKQWDLLPEPIRFLPNQFPLKIHRTPYLTSLKKIKDEIDDPFTKINTRGAEDPKVLINDQLSTISMILRNISFSDNNSRIMSRNFYLKRFISDLLWLVLIHPENFTCNRKILNFKKDLVIVLSNISHLLEIASSIDCLLILILVISFGQPKLNPMASSSSFGSESLTFNEFQLQWGKYQTFGVDILAKLFSLEKPNLNYFKSILLNKNTGNNLYDRNSNNNHKDKKLLRRLLNLYNDNNKNNNNRHNLLNDVVSFLFSAIPLQQVLSQSADPSLLIDQFSPVISQSLTSILVIVQKILPLSNEVFEISENNSDSNSNNNGNKDSSFNFNKNLPFVWLSSEENIGSGLLKLSEIILNINNSTSKNTLLQQQNYSKVLLPSINISCVQLIKCLVEKSICFENCLNNDPEILKKIASIPNLFPTDLEIFQLFTNPSVDIQIINQYQLLYNLKNDILTNLE | binds |
| Rtt102 (protein, UniProt P53330 1-157) MDPQTLITKANKVSYYGNPTSKESWRYDWYQPSKVSSNVQQPQQQLGDMENNLEKYPFRYKTWLRNQEDEKNLQRESCEDILDLKEFDRRILKKSLMTSHTKGDTSKATGAPSANQGDEALSVDDIRGAVGNSEAIPGLSAGVNNDNTKESKDVKMN | binds |
| Snf11 (protein, UniProt P38956 1-169) MSSEIAYSNTNTNTENENRNTGAGVDVNTNANANANATANATANATANATAELNLPTVDEQRQYKVQLLLHINSILLARVIQMNNSLQNNLQNNINNSNNNNIIRIQQLISQFLKRVHANLQCISQINQGVPSAKPLILTPPQLANQQQPPQDILSKLYLLLARVFEIW | binds |
| Rmt2 (enzyme, UniProt Q03305 1-412) MSELHALLTFPERPISQSYYVPKLQHFLKSGIPATYTLEQVAAFEHEEKNRNGDKEFRESTDDNKTSNTTPLHVLARSLPLDIKDEELQVVMDMMNILFEYGAGWNFIDYEDKTVGDLFLERNQSRESPLYRRLVEAGVSAELLLRKLNGGDVEFLDTDELIGIEPEESVQTAVDGQKEESVGSDDDATAANQQVYLKTELEYKDDALITKENKDGVMMDWETKIMELASETLFPDPEATNSATILNIGFGMGIIDTFIQARKPYRHYICEAHPDVLAKMKMDGWYEKDNVVILEGRWQDTLNNLLDKGEVFFDGIYYDTFSEHYQDILDLYDVVVGLIKPEGVFSFFNGLGADRSLCYDVYKEIVEIDVATYGMKCDYTRYSLDEQLPDWNDVKRSYFNCNYYYHPRITFA | binds |
| Rmt1 (enzyme, UniProt P38074 1-348) MSKTAVKDSATEKTKLSESEQHYFNSYDHYGIHEEMLQDTVRTLSYRNAIIQNKDLFKDKIVLDVGCGTGILSMFAAKHGAKHVIGVDMSSIIEMAKELVELNGFSDKITLLRGKLEDVHLPFPKVDIIISEWMGYFLLYESMMDTVLYARDHYLVEGGLIFPDKCSIHLAGLEDSQYKDEKLNYWQDVYGFDYSPFVPLVLHEPIVDTVERNNVNTTSDKLIEFDLNTVKISDLAFKSNFKLTAKRQDMINGIVTWFDIVFPAPKGKRPVEFSTGPHAPYTHWKQTIFYFPDDLDAETGDTIEGELVCSPNEKNNRDLNIKISYKFESNGIDGNSRSRKNEGSYLMH | no binding |

Results are given in words; binding and its absence hold for the method and conditions named. Binding seen in cells or lysates may run through a third protein. A yes stands for co-enrichment or nearness to the bait. Other partners may have been found. No binding means not detected with the bait.
